This is an account of results in article PMC7293033.

Sequences of proteins named here, by UniProt entry; tags and fusion partners are left off.
UniProt Q13838: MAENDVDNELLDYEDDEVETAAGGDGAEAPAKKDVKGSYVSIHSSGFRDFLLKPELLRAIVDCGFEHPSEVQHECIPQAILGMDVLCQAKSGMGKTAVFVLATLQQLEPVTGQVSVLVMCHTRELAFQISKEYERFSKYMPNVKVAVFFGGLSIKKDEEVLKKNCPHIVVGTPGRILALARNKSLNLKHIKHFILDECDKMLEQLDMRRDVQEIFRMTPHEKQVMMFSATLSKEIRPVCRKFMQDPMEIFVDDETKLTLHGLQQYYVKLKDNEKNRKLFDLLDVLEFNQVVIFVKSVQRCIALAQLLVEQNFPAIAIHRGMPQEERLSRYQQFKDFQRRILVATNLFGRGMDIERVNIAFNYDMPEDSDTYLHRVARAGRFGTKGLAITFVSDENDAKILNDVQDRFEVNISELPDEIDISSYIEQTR

For this test, the target named is GST-UAP56 (human) (UniProt Q13838). The experiment in a line: SPR; UAP56 with API5, FGF2, the API5–FGF2 complex or PBK as analyte proteins; purified recombinant proteins; both purified. Background: In SPR one partner is held on a chip, and binding of the other changes the refractive index at the surface.

These are yes or no findings as the source states them, for the method shown.

B1: PBK (PDZ-binding kinase) (protein, UniProt Q96KB5 1-322)
chain: MEGISNFKTPSKLSEKKKSVLCSTPTINIPASPFMQKLGFGTGVNVYLMKRSPRGLSHSPWAVKKINPICNDHYRSVYQKRLMDEAKILKSLHHPNIVGYRAFTEANDGSLCLAMEYGGEKSLNDLIEERYKASQDPFPAAIILKVALNMARGLKYLHQEKKLLHGDIKSSNVVIKGDFETIKICDVGVSLPLDENMTVTDPEACYIGTEPWKPKEAVEENGVITDKADIFAFGLTLWEMMTLSIPHINLSNDDDDEDKTFDESDFDDEAYYAALGTRPPINMEELDESYQKVIELFSVCTNEDPKDRPSAAHIVEALETDV
Regarding B1, the binding result is reported as “no binding”.
